PMC11905051

Chains of the proteins cited; added tags and fusions are not shown.
UniProt Q96FV2: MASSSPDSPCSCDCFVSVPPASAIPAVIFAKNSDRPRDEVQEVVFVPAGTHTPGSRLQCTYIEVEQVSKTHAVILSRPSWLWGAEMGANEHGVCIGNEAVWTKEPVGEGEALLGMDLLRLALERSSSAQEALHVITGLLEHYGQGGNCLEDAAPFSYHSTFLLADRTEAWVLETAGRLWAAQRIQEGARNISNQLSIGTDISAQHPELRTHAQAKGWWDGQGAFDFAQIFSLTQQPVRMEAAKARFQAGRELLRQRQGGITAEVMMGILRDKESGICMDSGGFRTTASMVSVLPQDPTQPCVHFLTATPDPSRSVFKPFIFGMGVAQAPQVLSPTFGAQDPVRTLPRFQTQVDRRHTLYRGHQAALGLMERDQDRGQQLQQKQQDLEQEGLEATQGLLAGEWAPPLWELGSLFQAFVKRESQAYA
UniProt O95816: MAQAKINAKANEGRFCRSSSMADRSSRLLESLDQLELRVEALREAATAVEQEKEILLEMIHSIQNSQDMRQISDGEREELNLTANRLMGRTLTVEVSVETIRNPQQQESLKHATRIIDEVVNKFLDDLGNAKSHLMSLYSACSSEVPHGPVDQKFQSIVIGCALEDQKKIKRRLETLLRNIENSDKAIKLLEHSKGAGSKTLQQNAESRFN
UniProt P11142: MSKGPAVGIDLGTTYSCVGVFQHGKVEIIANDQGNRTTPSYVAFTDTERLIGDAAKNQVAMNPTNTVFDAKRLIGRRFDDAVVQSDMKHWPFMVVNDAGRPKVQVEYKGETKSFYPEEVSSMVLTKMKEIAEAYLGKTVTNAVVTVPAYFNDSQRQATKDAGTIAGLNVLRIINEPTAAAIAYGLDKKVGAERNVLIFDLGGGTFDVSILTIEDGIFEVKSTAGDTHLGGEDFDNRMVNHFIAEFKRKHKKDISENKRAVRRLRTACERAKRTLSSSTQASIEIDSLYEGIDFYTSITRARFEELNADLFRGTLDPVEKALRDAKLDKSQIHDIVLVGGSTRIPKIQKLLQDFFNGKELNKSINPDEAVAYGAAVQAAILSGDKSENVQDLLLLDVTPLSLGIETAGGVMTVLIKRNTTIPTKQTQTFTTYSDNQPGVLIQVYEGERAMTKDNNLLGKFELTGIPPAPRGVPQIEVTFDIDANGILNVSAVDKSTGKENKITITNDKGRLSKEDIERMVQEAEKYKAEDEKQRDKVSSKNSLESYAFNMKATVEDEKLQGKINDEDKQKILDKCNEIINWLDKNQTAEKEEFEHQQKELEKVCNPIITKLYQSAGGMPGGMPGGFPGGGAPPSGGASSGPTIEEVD

Biological target: HA-SCRN2 (secernin-2) (human) (UniProt Q96FV2)
Experiment: affinity purification with mass spectrometry; HEK293T cells stably expressing pLVX or HA-SCRN2, NP-40 lysis buffer, IP, Coomassie-stained gel, LC-MS/MS; hits with more than 2 unique peptides

| binding | Substance |
| --- | --- |
| binds | BAG family molecular chaperone regulator 2 (BAG2) (from UniProt O95816 1-211) |
| binds | HSPA8 (heat shock protein family A member 8) (from UniProt P11142 1-646) |

No constants are given. Whether binding was seen depends on the method and setting. In cells and extracts the contact can be indirect. These calls come from enrichment with a bait or labelling near it, and not all partners need be listed.
